Measurements reported in paper PMC10523776.
These are yes or no findings as the source states them, for the method shown. In cells and extracts the contact can be indirect. Some binding calls cover weakened binding; strength is not graded here.

Amino acid sequences for entries named in this document (tags omitted).
UniProt D2D055: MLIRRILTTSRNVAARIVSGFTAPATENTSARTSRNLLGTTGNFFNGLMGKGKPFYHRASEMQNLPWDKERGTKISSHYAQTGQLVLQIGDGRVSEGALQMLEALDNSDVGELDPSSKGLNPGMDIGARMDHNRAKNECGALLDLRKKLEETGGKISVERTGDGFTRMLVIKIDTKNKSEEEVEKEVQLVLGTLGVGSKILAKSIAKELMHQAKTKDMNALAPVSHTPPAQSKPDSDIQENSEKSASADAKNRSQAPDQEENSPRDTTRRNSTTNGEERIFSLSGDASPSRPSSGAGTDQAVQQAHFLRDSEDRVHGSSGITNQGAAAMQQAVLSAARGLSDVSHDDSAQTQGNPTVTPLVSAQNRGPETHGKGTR
UniProt O00560: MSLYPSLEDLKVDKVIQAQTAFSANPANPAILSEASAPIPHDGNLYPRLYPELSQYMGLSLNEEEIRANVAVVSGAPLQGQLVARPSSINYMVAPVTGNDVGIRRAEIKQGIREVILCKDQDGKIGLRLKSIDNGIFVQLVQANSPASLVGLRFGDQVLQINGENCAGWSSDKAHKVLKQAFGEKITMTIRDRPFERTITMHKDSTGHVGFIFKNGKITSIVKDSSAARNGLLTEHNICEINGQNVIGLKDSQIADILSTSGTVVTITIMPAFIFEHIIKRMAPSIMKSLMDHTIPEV

Biological target: Ats-1-His (pcDNA3.1-Ats-1) (Anaplasma phagocytophilum) (UniProt D2D055)
Experiment: co-IP; Ats-1-His and SDCBP-Myc co-transfected into HEK293T, 48 h, native lysis buffer; immunoprecipitated with anti-His or anti-Myc antibody and protein G-agarose, blotted for the Myc or His tag

## SDCBP-Myc (pcDNA3.1) (from UniProt O00560 1-298)
  binding: binds
